Measured values taken from doi:10.1101/545400.
These are yes or no findings as the source states them, for the method shown. In cells and extracts the contact can be indirect. These calls come from enrichment with a bait or labelling near it, and not all partners need be listed.

By UniProt entry, the sequences of proteins in these tests, tags left out.
UniProt O43353: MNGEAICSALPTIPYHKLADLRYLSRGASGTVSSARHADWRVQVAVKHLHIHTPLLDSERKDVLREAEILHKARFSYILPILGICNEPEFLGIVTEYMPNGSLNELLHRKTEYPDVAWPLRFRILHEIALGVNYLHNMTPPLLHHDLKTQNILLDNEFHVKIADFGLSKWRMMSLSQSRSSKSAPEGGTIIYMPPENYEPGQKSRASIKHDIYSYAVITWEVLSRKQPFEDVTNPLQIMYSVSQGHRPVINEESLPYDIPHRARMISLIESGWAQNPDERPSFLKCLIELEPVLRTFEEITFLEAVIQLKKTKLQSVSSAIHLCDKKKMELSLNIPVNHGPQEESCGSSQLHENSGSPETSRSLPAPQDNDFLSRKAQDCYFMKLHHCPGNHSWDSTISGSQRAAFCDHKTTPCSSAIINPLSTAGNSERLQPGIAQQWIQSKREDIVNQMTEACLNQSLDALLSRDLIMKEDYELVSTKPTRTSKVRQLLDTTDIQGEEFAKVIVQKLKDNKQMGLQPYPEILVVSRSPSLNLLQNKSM
UniProt P63104: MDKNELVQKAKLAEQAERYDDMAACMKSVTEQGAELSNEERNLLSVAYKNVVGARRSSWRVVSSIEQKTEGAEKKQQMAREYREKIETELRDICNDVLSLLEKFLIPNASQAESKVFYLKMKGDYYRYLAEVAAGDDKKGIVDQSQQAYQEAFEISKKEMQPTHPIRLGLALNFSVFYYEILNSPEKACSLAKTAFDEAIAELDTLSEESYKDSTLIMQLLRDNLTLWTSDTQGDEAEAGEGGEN
UniProt P62258: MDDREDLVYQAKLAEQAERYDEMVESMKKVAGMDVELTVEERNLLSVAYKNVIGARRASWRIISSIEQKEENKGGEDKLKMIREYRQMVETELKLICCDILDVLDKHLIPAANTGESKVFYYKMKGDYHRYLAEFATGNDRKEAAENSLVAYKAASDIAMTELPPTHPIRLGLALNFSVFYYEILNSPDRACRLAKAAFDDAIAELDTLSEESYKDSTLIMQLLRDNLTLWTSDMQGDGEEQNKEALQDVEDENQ
UniProt P31946: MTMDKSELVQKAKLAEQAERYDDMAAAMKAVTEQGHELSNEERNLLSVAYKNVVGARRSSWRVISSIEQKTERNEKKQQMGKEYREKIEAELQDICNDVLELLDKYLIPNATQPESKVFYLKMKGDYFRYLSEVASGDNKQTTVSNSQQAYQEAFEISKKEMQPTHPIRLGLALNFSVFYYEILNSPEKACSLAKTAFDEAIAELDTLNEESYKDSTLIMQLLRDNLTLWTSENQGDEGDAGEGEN

B1: 14-3-3γ (endogenous) (protein, UniProt P61981 1-247)
chain: MVDREQLVQKARLAEQAERYDDMAAAMKNVTELNEPLSNEERNLLSVAYKNVVGARRSSWRVISSIEQKTSADGNEKKIEMVRAYREKIEKELEAVCQDVLSLLDNYLIKNCSETQYESKVFYLKMKGDYYRYLAEVATGEKRATVVESSEKAYSEAHEISKEHMQPTHPIRLGLALNYSVFYYEIQNAPEQACHLAKTAFDDAIAELDTLNEDSYKDSTLIMQLLRDNLTLWTSDQQDDDGGEGNN
B2: Erlin-1 (protein, UniProt O75477 1-348)
chain: MNMTQARVLVAAVVGLVAVLLYASIHKIEEGHLAVYYRGGALLTSPSGPGYHIMLPFITTFRSVQTTLQTDEVKNVPCGTSGGVMIYIDRIEVVNMLAPYAVFDIVRNYTADYDKTLIFNKIHHELNQFCSAHTLQEVYIELFDQIDENLKQALQKDLNLMAPGLTIQAVRVTKPKIPEAIRRNFELMEAEKTKLLIAAQKQKVVEKEAETERKKAVIEAEKIAQVAKIRFQQKVMEKETEKRISEIEDAAFLAREKAKADAEYYAAHKYATSNKHKLTPEYLELKKYQAIASNSKIYFGSNIPNMFVDSSCALKYSDIRTGRESSLPSKEALEPSGENVIQNKESTG
B3: Erlin-2 (protein, UniProt O94905 1-339)
chain: MAQLGAVVAVASSFFCASLFSAVHKIEEGHIGVYYRGGALLTSTSGPGFHLMLPFITSYKSVQTTLQTDEVKNVPCGTSGGVMIYFDRIEVVNFLVPNAVYDIVKNYTADYDKALIFNKIHHELNQFCSVHTLQEVYIELFDQIDENLKLALQQDLTSMAPGLVIQAVRVTKPNIPEAIRRNYELMESEKTKLLIAAQKQKVVEKEAETERKKALIEAEKVAQVAEITYGQKVMEKETEKKISEIEDAAFLAREKAKADAECYTAMKIAEANKLKLTPEYLQLMKYKAIASNSKIYFGKDIPNMFMDSAGSVSKQFEGLADKLSFGLEDEPLETATKEN

These molecules were tested against EGFP-RIPK2 (receptor interacting serine/threonine kinase 2) (human) (UniProt O43353) (assay: affinity purification with mass spectrometry).
In the case of “14-3-3ζ (endogenous) (from UniProt P63104 1-245)”, the binding is reported as “binds”.
In the case of “14-3-3ε (endogenous) (from UniProt P62258 1-255)”, the binding is reported as “binds”.
For “14-3-3β (endogenous) (from UniProt P31946 1-246)”, the binding was “binds”.
With B1 the binding was “binds”.
B2 was tested, and the binding was “binds”.
In the case of B3, the binding is reported as “binds”.
